Laboratory results reported in publication PMC3738513.
These are yes or no findings as the source states them, for the method shown. In cells and extracts the contact can be indirect. Some results given as binding are weak or reduced against the parent protein; the word gives no strength. Where a sequence is shown, tags or fusion partners need not be part of it.

Sequences of proteins named here, by UniProt entry; tags and fusion partners are left off.
UniProt P03372: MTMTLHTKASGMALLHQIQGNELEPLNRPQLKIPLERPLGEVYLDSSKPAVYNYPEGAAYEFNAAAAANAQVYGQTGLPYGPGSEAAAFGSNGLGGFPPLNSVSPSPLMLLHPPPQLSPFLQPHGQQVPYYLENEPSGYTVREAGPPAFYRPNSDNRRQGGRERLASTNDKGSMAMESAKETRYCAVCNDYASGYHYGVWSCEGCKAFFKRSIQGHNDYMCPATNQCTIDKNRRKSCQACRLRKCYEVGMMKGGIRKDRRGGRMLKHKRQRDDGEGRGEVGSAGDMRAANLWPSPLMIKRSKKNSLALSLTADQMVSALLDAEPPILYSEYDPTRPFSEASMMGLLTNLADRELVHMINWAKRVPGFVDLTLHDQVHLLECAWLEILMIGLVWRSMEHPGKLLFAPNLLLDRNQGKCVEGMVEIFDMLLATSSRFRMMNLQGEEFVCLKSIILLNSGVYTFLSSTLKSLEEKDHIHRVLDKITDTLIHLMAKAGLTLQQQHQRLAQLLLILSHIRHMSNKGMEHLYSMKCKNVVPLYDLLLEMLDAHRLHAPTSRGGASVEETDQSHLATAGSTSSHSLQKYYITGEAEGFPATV

Biological target: ERα (estrogen receptor α) (UniProt P03372)
Test: co-IP; ERα immunoprecipitated from lysate of MCF-7/C4–12 cells transiently transfected with ERα and EBF1, treated with 10 nM E2 or vehicle; blot for EBF1; precipitating antibody not stated

B1: V5-tagged Early B-cell Factor 1 (EBF1) (protein, UniProt Q9UH73 1-591)
chain: MFGIQESIQRSGSSMKEEPLGSGMNAVRTWMQGAGVLDANTAAQSGVGLARAHFEKQPPSNLRKSNFFHFVLALYDRQGQPVEIERTAFVGFVEKEKEANSEKTNNGIHYRLQLLYSNGIRTEQDFYVRLIDSMTKQAIVYEGQDKNPEMCRVLLTHEIMCSRCCDKKSCGNRNETPSDPVIIDRFFLKFFLKCNQNCLKNAGNPRDMRRFQVVVSTTVNVDGHVLAVSDNMFVHNNSKHGRRARRLDPSEGTPSYLEHATPCIKAISPSEGWTTGGATVIIIGDNFFDGLQVIFGTMLVWSELITPHAIRVQTPPRHIPGVVEVTLSYKSKQFCKGTPGRFIYTALNEPTIDYGFQRLQKVIPRHPGDPERLPKEVILKRAADLVEALYGMPHNNQEIILKRAADIAEALYSVPRNHNQLPALANTSVHAGMMGVNSFSGQLAVNVSEASQATNQGFTRNSSSVSPHGYVPSTTPQQTNYNSVTTSMNGYGSAAMSNLGGSPTFLNGSAANSPYAIVPSSPTMASSTSLPSNCSSSSGIFSFSPANMVSAVKQKSAFAPVVRPQTSPPPTCTSTNGNSLQAISGMIVPPM
In the case of B1, the binding is reported as “binds”.
